The list does not hold the whole screen: it gathers tests that were run many times, whatever their T/C, doses with no T/C, and many T/C values between a quarter and a half above the control. Other doses and runs of a compound stand elsewhere. T/C: endpoint of the treated group in % of that of the vehicle group. Some entries give survivors of the animals treated and no T/C: the source holds a T/C of zero for them, seemingly a mark for toxic or unscored doses. Some doses without a T/C left all or most animals alive at the check, yet need not have been tolerated: the source hardly ever lists a survival T/C far under the control, and the zero likely stands for such cases as well. Survivors were counted at the toxicity check, usually on the fifth day, unless a day is given; later deaths do not show. Schedules are NCI's codes, taken here to give the interval after Q, in days (D) or hours (H), and the number of doses after X. Some doses were run more than once; the values are given in rising order. For survival time, the PubChem record calls one and a half times the control and up active, and a quarter to a half above the control has no call in these data; cut-offs in other NCI protocols can differ. Some T/C values carry the count of animals alive at the toxicity check (mostly the fifth day); without a count, all were alive then.
Tested on: BDF1 mice, B16 melanoma ip, median survival T/C
Assay: NCI In Vivo Anticancer Drug Screen. Data for tumor model B16 Melanoma (intraperitoneal) in B6D2F1 (BDF1) mice
Settings: T/C endpoint: median survival time, higher T/C = longer survival
In short: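 Read-out: survival or tumor size, given as treated/control ratio. Controls received vehicle only; animals bore transplantable tumors.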

[1] = dose: 200.0 mg/kg/injection, schedule: Q01DX009 (ip), vehicle: saline with Tween-80
[2] = dose: 400.0 mg/kg/injection, schedule: Q01DX009 (ip), vehicle: Klucel (hydroxypropylcellulose) (HPC)
[3] = dose: 400.0 mg/kg/injection, schedule: Q01DX009 (ip), vehicle: saline

Compound: CC(=O)OCC1OC(OC(C)=O)C(NC(=O)N(CCCl)N=O)C(OC(C)=O)C1OC(C)=O (centres undefined)
- T/C (dose: 1.0 mg/kg/injection, schedule: Q01DX009 (ip), vehicle: Klucel (hydroxypropylcellulose) (HPC)): 148 % of control
- T/C (dose: 4.0 mg/kg/injection, schedule: Q01DX009 (ip), vehicle: Klucel (hydroxypropylcellulose) (HPC)): 143 % of control
- T/C (dose: 6.0 mg/kg/injection, schedule: Q01DX009 (ip), vehicle: Klucel (hydroxypropylcellulose) (HPC)): 134 % of control
- survivor count (dose: 8.0 mg/kg/injection, schedule: Q01DX009 (ip), vehicle: Klucel (hydroxypropylcellulose) (HPC)): 10 of 10
- survivor count (dose: 12.0 mg/kg/injection, schedule: Q01DX009 (ip), vehicle: Klucel (hydroxypropylcellulose) (HPC)): 10 of 10
- survivor count (dose: 16.0 mg/kg/injection, schedule: Q01DX009 (ip), vehicle: Klucel (hydroxypropylcellulose) (HPC)): 10 of 10
- survivor count (dose: 24.0 mg/kg/injection, schedule: Q01DX009 (ip), vehicle: Klucel (hydroxypropylcellulose) (HPC)): 10 of 10

Compound: COc1ccc2c(Nc3ccc(NS(C)(=O)=O)cc3)c3ccccc3nc2c1
- T/C (dose: 1.25 mg/kg/injection, schedule: Q01DX009 (ip), vehicle: saline with Tween-80): 126 % of control
- T/C (dose: 12.5 mg/kg/injection, schedule: Q01DX001 (ip), vehicle: saline sonified): 138 % of control
- survivor count (dose: 15.0 mg/kg/injection, schedule: Q01DX009 (ip), vehicle: saline with Tween-80): 10 of 10
- T/C (dose: 25.0 mg/kg/injection, schedule: Q01DX001 (ip), vehicle: saline sonified): 130 % of control
- survivor count (dose: 25.0 mg/kg/injection, schedule: Q01DX009 (ip), vehicle: saline): 6 of 6
- survivor count (dose: 50.0 mg/kg/injection, schedule: Q01DX009 (ip), vehicle: saline): 6 of 6
- survivor count (dose: 100.0 mg/kg/injection, schedule: Q01DX009 (ip), vehicle: saline): 5 of 6

Compound: O=C(O)C(/C=C/c1ccccc1)c1ccccc1 (centres undefined)
- survivor count [1]: 8 of 10

Compound: CC(=O)N1CCC2(CC1)SSC1(CCN(C(C)=O)CC1)S2
- survivor count (dose: 20.0 mg/kg/injection, schedule: Q01DX009 (ip), vehicle: saline with Tween-80): 9 of 10

Compound: Cc1cc(C)c(NC(=O)Nc2cccc3ccccc23)c(C)c1
- survivor count (dose: 100.0 mg/kg/injection, schedule: Q01DX009 (ip), vehicle: Klucel (hydroxypropylcellulose) (HPC)): 9 of 10

Compound: O=C(Nc1ccc(F)cc1)NC1CCCCC1
- survivor count [2]: 6 of 6

Compound: Cc1cc(Cl)ccc1NC(=O)c1ccccc1C(=O)O
- survivor count [2]: 5 of 10

Compound: CCCCOc1ccc(OCCCCCCCCCC[N+](C)(C)C)cc1
- survivor count (dose: 25.0 mg/kg/injection, schedule: Q01DX009 (ip), vehicle: Klucel (hydroxypropylcellulose) (HPC)): 10 of 10

Compound: COC(=Nc1ccccc1)SSC(C)C
- survivor count [1]: 0 of 10

Compound: Cn1c(=O)c2c(ncn2CCO)n(C)c1=O
- survivor count [3]: 4 of 10

Compound: COC(C(=O)C(O)C(C)O)C1CC2C=C3C=C(OC4CC(OC5CC(O)C(OC)C(C)O5)C(OC(C)=O)C(C)O4)C(C)C(=O)C3=C(O)C2=C(O)C1OC1CC(OC2CC(OC3CC(C)(O)C(O)C(C)O3)C(O)C(C)O2)C(O)C(C)O1 (centres undefined)
- T/C (dose: 1.8 mg/kg/injection, schedule: Q01DX009 (ip), vehicle: saline with Tween-80): 143 % of control
- T/C (dose: 2.0 mg/kg/injection, schedule: Q01DX009 (ip), vehicle: saline with Tween-80): 131 and 138 % of control [9 of 10 alive]
- T/C (dose: 4.0 mg/kg/injection, schedule: Q01DX009 (ip), vehicle: saline with Tween-80): 142 % of control
- survivor count (dose: 6.0 mg/kg/injection, schedule: Q01DX009 (ip), vehicle: saline with Tween-80): 9 of 10
- survivor count (dose: 9.0 mg/kg/injection, schedule: Q01DX009 (ip), vehicle: saline with Tween-80): 6 of 10

Compound: CC(=O)[C@@]1(O)CC[C@H]2[C@@H]3C[C@H](C)C4=CC(=O)C=C[C@]4(C)[C@@]3(F)[C@@H](O)C[C@@]21C
- survivor count (dose: 12.0 mg/kg/injection, schedule: Q01DX009 (sc), vehicle: steroid suspending solution): 6 of 6

Compound: [CH3][Pb]([CH3])([CH3])[Cl]
- survivor count (dose: 3.0 mg/kg/injection, schedule: Q01DX009 (ip), vehicle: saline): 10 of 10
- survivor count (dose: 6.0 mg/kg/injection, schedule: Q01DX009 (ip), vehicle: saline): 0 of 10

Compound: C=CCNC(=O)NCC=C
- survivor count [3]: 2 of 6

Compound: CCCCNC(C)[C@]1(O)Cc2c(O)c3c(c(O)c2[C@@H](OC2CC(N)C(O)C(C)O2)C1)C(=O)c1c(OC)cccc1C3=O (some centres undefined)
- survivor count (dose: 37.5 mg/kg/injection, schedule: Q01DX001 (ip), vehicle: water): 7 of 10 and 9 of 10
- survivor count (dose: 75.0 mg/kg/injection, schedule: Q01DX001 (ip), vehicle: water): 0 of 10, 2 of 10, 3 of 10
- survivor count (dose: 150.0 mg/kg/injection, schedule: Q01DX001 (ip), vehicle: water): 0 of 10
